Assay results from US20170160285A1 (VIB VZW, published 2017).
Results are given in words; binding and its absence hold for the method and conditions named. Some entries that bind do so weakly or less than the wild type.

Sequences of proteins named here, by UniProt entry; tags and fusion partners are left off.
UniProt P10824: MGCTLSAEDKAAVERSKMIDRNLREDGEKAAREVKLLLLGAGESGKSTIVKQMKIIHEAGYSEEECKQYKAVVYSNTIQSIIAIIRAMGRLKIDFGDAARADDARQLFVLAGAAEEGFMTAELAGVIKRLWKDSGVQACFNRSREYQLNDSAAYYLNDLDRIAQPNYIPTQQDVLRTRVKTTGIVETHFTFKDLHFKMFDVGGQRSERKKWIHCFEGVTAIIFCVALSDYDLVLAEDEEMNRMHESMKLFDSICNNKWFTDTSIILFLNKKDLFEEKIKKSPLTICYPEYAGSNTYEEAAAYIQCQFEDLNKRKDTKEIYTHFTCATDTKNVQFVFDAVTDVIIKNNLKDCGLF

Biological target: Recombinant Gαi1 (heterotrimeric G protein alpha subunit i1) (rat) (UniProt P10824)
Test: size exclusion chromatography of the RIC8A/Gαi1 complex

B1: Recombinant rat RIC8A (resistance to inhibitors of cholinesterase 8A) (protein, UniProt Q80ZG1 1-491, looked up)
chain: MEPRAVADALETGEEDAVTEALRSFNREHSQSFTFDDAQQEDRKRLAKLLVSVLEQGLSPKHRVTWLQTIRILSRDRSCLDSFASRQSLHALACYADIAISEEPIPQPPDMDVLLESLKCLCNLVLSSPTAQMLAAEARLVVRLAERVGLYRKRSYPHEVQFFDLRLLFLLTALRTDVRQQLFQELHGVRLLTDALELTLGVAPKENPLVILPAQETERAMEILKVLFNITYDSVKREVDEEDAALYRYLGTLLRHCVMADAAGDRTEEFHGHTVNLLGNLPLKCLDVLLALELHEGSLEFMGVNMDVINALLAFLEKRLHQTHRLKECVAPVLSVLTECARMHRPARKFLKAQVLPPLRDVRTRPEVGDLLRNKLVRLMTHLDTDVKRVAAEFLFVLCSESVPRFIKYTGYGNAAGLLAARGLMAGGRPEGQYSEDEDTDTEEYREAKASINPVTGRVEEKPPNPMEGMTEEQKEHEAMKLVNMFDKLSR
binding: binds
